Measurements taken from publication PMC12613848, “First in human phase 1 study of DT2216, a selective BCL-xL degrader, in patients with relapsed/refractory solid malignancies” (Journal of Hematology & Oncology, 2025).

Test: Safety and tolerability in patients (adverse events CTCAE v5.0, DLT, platelet count, RP2D)
Assay type: in vivo, human
Details: IV BIW
Method: Dose escalation consisted of the administration of DT2216 intravenously twice weekly at several different doses outlined in protocol attached. The starting dose was 0.04 mg/kg, established based on pre-clinical toxicity studies. Safety was evaluated using CTCAE version 5.0. The initial three dose levels enrolled one patient, following which for dose level 4 and 5, a 3 + 3 design was utilized following a 100% incremental dose increase for dose levels 2 to 5 until the first dose limiting toxicity (DLT) in cycle 1 was observed. Thereafter, a modified Fibonacci sequence was used to define dose escalation increments until the maximum tolerated dose (MTD) was reached as described in protocol. If no dose-limiting toxicity (DLT) was observed during the DLT monitoring period of first 28 days, the next patient was enrolled at the next higher dose level. […]
Patients were allowed a maximum of two intra-patient dose escalations. […] The extent of disease was evaluated using imaging studies and disease-appropriate tumor markers every 8 weeks from day 1 of the first cycle. […]
Premedication prior to each infusion was at the discretion of the investigator or according to institutional guidelines. […] The clinical response was evaluated using RECIST v1.1 per protocol. […]

For Cc1ncsc1-c1ccc([C@H](C)NC(=O)[C@@H]2C[C@@H](O)CN2C(=O)[C@@H](NC(=O)CCCCCC(=O)N2CCN(CC[C@H](CSc3ccccc3)Nc3ccc(S(=O)(=O)NC(=O)c4ccc(N5CCN(CC6=C(c7ccc(Cl)cc7)CCC(C)(C)C6)CC5)cc4)cc3S(=O)(=O)C(F)(F)F)CC2)C(C)(C)C)cc1 [DT2216], the “recommended phase 2 dose (RP2D)” value was 0.4 mg/kg.
